This is one part of the list. Further columns of the screen follow, without active or inactive calls. Most of these compounds were active or inconclusive in the main read-out, so they are no random draw. Potencies come from curve fits of mixed quality, noted in brackets.
Assay: qHTS Assay for Lipid Storage Modulators in Drosophila S3 Cells;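 as to cell number change: cells counted by Cell Tracker Red CMTPX staining in the red channel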
Conditions: BODIPY lipid droplet fluorescence, 18-24 h; for cell number change: measured here: cell count max response, cells fed with added oleic acid
Outline: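 Drosophila S3 cells got compounds at several concentrations plus oleic acid (400 uM solution). Laser-scanning cytometry with 488 nm excitation read lipid droplets at 500-530 nm and cells at 575-640 nm. Percent activity was relative to 20 uM Triacsin C.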

[1] = measured here: lipid fluorescence (Fed channel) AC50, cells fed with added oleic acid
[2] = measured here: cell number channel AC50, cells fed with added oleic acid

## COc1ccc(/C=N/NS(=O)(=O)c2ccccc2)cc1OC
  cell number change: 7.2%
[1]
  AC50: 32.6 µM [falling, single point]

## O=C(Nc1ccc(F)cc1F)c1cc(-c2ccc3c(c2)OCO3)on1
  cell number change: -1.26%
[1]
  AC50: 20.6 µM [falling, single point]

## COc1cc(NC(=O)c2cccnc2)ccc1-c1cc2ccccc2oc1=O
[2]
  AC50: 4.61 µM [rising, partial curve]
[1]
  AC50: 4.11 µM [rising, full curve]

## CS(=O)(=O)Nc1ccc(C(=O)N2CCCCC2)cc1
  cell number change: -44.5%
[2]
  AC50: 0.92 µM [falling, full curve]
[1]
  AC50: 3.66 µM [falling, full curve]

## O=C(NCCOc1ccc(Cl)cc1)c1cccc(S(=O)(=O)N2CCCC2)c1
  cell number change: -11.7%
[1]
  AC50: 0.00651 µM [falling, full curve, poor fit]

## Cc1cc(C)cc(OCc2ccc(C(=O)O)o2)c1
  cell number change: -138%
[2]
  AC50: 25.9 µM [falling, partial curve]
[1]
  AC50: 6.51 µM [falling, partial curve]

## COc1nc(Cl)cn(-c2ccc(Cl)cc2)c1=O
  cell number change: -1.07%
[2]
  AC50: 0.116 µM [rising, full curve, poor fit]

## O=C(CCCc1nc(-c2ccccc2)no1)N1CCOCC1
  cell number change: 7.54%
[1]
  AC50: 0.461 µM [rising, single point]

## C(=N\n1cnnc1)/c1cccc2ccccc12
  cell number change: 12.2%
[1]
  AC50: 0.116 µM [rising, full curve]

## Cn1c(=O)cc(SCC(=O)N2CCN(C(=O)c3ccco3)CC2)c2ccccc21
[1]
  AC50: 0.146 µM [rising, full curve, poor fit]

## CCOc1ccc(NC(=S)N2CCCC2)cc1
  cell number change: 6.36%
[1]
  AC50: 0.411 µM [falling, partial curve, poor fit]

## CCOC(=O)[C@H]1[C@H]2COc3ccccc3[C@@H]2N2C(=O)c3cc(F)ccc3NC(=O)[C@@]12C
  cell number change: 11.4%
[1]
  AC50: 32.6 µM [falling, single point]

## Cc1onc(-c2ccccc2Cl)c1C(=O)NC1CCCCCC1
  cell number change: 6.31%
[1]
  AC50: 0.58 µM [rising, single point]

## CCN(CC)CCNC(=O)c1ccc(Cl)c(S(=O)(=O)Nc2ccc(Cl)cc2)c1
  cell number change: -54.8%
[2]
  AC50: 2.59 µM [falling, full curve]

## CC(C)(C)c1cc(NCCCn2ccnc2)n2ncc(-c3ccc(Cl)cc3)c2n1
  cell number change: -52.1%
[2]
  AC50: 29.1 µM [falling, single point]
[1]
  AC50: 25.9 µM [falling, partial curve]

## CSc1nc(=S)n(-c2ccc([N+](=O)[O-])cc2)c(C)c1C(C)=O
  cell number change: -13.2%
[1]
  AC50: 13 µM [rising, partial curve]

## Nc1nc(SCC(=O)NCC2CCCO2)[nH]c(=O)c1NC(=O)c1ccc(F)c(F)c1 (centres undefined)
  cell number change: -11.9%
[1]
  AC50: 6.51 µM [rising, single point]

## Cc1cc(C)c2c(c1)/C(=N/NS(=O)(=O)c1ccccc1)CCC2
  cell number change: 8.38%
[1]
  AC50: 1.46 µM [rising, full curve]

## CC1(C(=O)O)Sc2[nH]c(=O)sc2C2c3ccccc3OC(=O)C21 (centres undefined)
  cell number change: -26.9%
[1]
  AC50: 0.13 µM [rising, full curve, poor fit]

## CC(=O)N1c2ccc(S(=O)(=O)N3CCCCC3)cc2CC1C(=O)Nc1ccc(C)cc1 (centres undefined)
  cell number change: 2.83%
[1]
  AC50: 29.1 µM [rising, single point]

## COc1ccc(N(C)C(=O)c2cc3c(s2)-c2ccc(Cl)cc2S(=O)(=O)C3)c(OC)c1
  cell number change: 14%
[1]
  AC50: 6.51 µM [rising, single point]

## COc1ccccc1NC(=O)C(NC(=O)c1ccc(C)cc1)c1ccccc1 (centres undefined)
  cell number change: -37.8%
[2]
  AC50: 32.6 µM [falling, partial curve, poor fit]

## C/C(=N\NC(=O)c1ccncc1)c1cccc(NC(=O)c2ccc(Cl)s2)c1
  cell number change: -16.4%

## COc1ccccc1C1C(C(C)=O)=C(C)N=c2s/c(=C\c3cc(OC)c(OC)c(OC)c3)c(=O)n21 (centres undefined)
  cell number change: -27.8%
[1]
  AC50: 18.4 µM [falling, single point]

## O=[N+]([O-])c1ccc(-c2c[nH]c(=S)[nH]2)cc1
[2]
  AC50: 4.61 µM [falling, single point]

## O=C(Nc1nnc(-c2cccs2)s1)C1CC1
  cell number change: 6.16%
[2]
  AC50: 6.51 µM [rising, single point]

## CCCc1nc(SCC(=O)N2CCCc3ccccc32)c2c(=O)n(C)c(=O)n(C)c2n1
  cell number change: 47%
[2]
  AC50: 0.58 µM [rising, partial curve]

## CC12CCC(C(=O)NCc3ccc4c(c3)OCO4)(OC1=O)C2(C)C (centres undefined)
  cell number change: -8.07%

## COCCc1nnc(NC(=O)Cc2ccccc2)s1
  cell number change: -10.1%
[2]
  AC50: 0.103 µM [falling, full curve, poor fit]
[1]
  AC50: 29.1 µM [falling, partial curve]

## C/C(=N\Nc1ccc(Cl)cc1)c1ccncc1
  cell number change: 19.1%

## CCN(Cc1ccccc1)S(=O)(=O)c1ccc(OC)cc1
  cell number change: 27.7%

## CC(C)(C)CC(=O)Nc1nnc(SCC(=O)NC2CCCCC2)s1
  cell number change: -4.84%
[1]
  AC50: 29.1 µM [falling, single point]

## COc1ccc(OCC(=O)OCCN2C(=O)c3ccccc3C2=O)cc1
  cell number change: 1.48%

## CC(=O)NC(CC(=O)Oc1ccc(C)cc1Br)c1ccccc1 (centres undefined)
  cell number change: 7.03%

## Cc1ccc(-c2nc3cc(Cl)ccc3o2)cc1
  cell number change: 8.52%
[1]
  AC50: 3.66 µM [rising, partial curve]

## Cc1cc([N+](=O)[O-])nn1CCCC(=O)NCc1ccccc1
  cell number change: 50.9%
[2]
  AC50: 29.1 µM [rising, single point]

## C/C(=N/OC(=O)c1cccc(C(F)(F)F)c1)c1cnccn1
  cell number change: -41.6%

## CC(C)Cn1c(SCc2nnc(-c3cccs3)o2)nc(O)cc1=O
  cell number change: 19.7%

## COc1ccc(CNC(=O)CNC(=O)c2ccc(Br)o2)cc1OC
  cell number change: 1.17%
[1]
  AC50: 3.26 µM [rising, partial curve, poor fit]

## CSc1cccc(NC(=S)Nc2ccc(F)cc2)c1
  cell number change: 11.1%
[1]
  AC50: 6.51 µM [rising, single point]

## C#CCN(Cc1ccccc1)S(=O)(=O)C=C
  cell number change: 11%
[1]
  AC50: 0.00461 µM [rising, full curve, poor fit]

## Cc1ccccc1OCCn1nc(C(=O)O)c2ccccc2c1=O
  cell number change: 6.81%
[1]
  AC50: 0.82 µM [rising, full curve]

## Cc1ccc(C)c(S(=O)(=O)N(C)C2CCS(=O)(=O)C2)c1 (centres undefined)
  cell number change: 1.41%

## CCCc1[nH]nc2c1C(c1cn[nH]c1-c1ccc(F)cc1)C(C#N)=C(N)O2 (centres undefined)
  cell number change: -21.6%
[1]
  AC50: 1.03 µM [falling, single point]

## COc1ccc(CCNC(=O)CN(c2ccc(OC)c(OC)c2)S(=O)(=O)c2ccc(C)cc2)cc1
  cell number change: -32.5%
[2]
  AC50: 0.164 µM [falling, full curve, poor fit]

## CCc1ccc(NC(=O)C2CCN(C(=O)[C@@H]3Cc4ccccc4CN3)CC2)cc1
  cell number change: -11.6%
[1]
  AC50: 20.6 µM [rising, single point]

## NC(=O)CC(NC(=O)Cc1ccc(Br)cc1)c1ccc(NC2CCC2)c([N+](=O)[O-])c1 (centres undefined)
  cell number change: 7.96%
[1]
  AC50: 10.3 µM [rising, partial curve]

## CNC(=O)COC(=O)/C=C/c1ccco1
  cell number change: -1.58%

## COc1ccccc1N1CCN(/N=C/c2ccc([N+](=O)[O-])cc2)CC1
  cell number change: -49%
[2]
  AC50: 16.4 µM [falling, partial curve, poor fit]
[1]
  AC50: 20.6 µM [falling, partial curve]

## COc1ccc(Sc2nc3ccccc3n3c(C(F)(F)F)nnc23)cc1
  cell number change: -10.3%
[1]
  AC50: 0.00517 µM [falling, full curve, poor fit]

## Cc1ccc(C)c2sc(NC(=O)c3ccc(N4C(=O)CCC4=O)cc3)nc12
[1]
  AC50: 1.46 µM [rising, full curve]

## COc1ccccc1NC(=O)CSc1nncn1-c1ccccc1
  cell number change: -26.9%
[2]
  AC50: 0.0291 µM [falling, full curve, poor fit]

## O=C(CSc1nc(C2CC2)nc2ccccc12)Nc1ccccc1N1CCOCC1
  cell number change: -13.3%
[2]
  AC50: 6.51 µM [falling, single point]
[1]
  AC50: 6.51 µM [falling, partial curve]

## CC(C)(C)C(=O)NC(Nc1cccc2cccnc12)C(Cl)(Cl)Cl (centres undefined)
  cell number change: 5.59%
[1]
  AC50: 6.51 µM [falling, partial curve]

## CCCNC(=S)N1CCN(C(c2ccccc2)c2ccccc2)CC1
  cell number change: 27.5%
[1]
  AC50: 14.6 µM [rising, partial curve]

## CO/C(N)=C(\C#N)N=Cc1ccccc1Cl
  cell number change: 34.2%
[2]
  AC50: 18.4 µM [rising, single point]
[1]
  AC50: 20.6 µM [rising, single point]

## CC1(C)CNC(=O)c2sc(N3CCOCC3)nc2C1
  cell number change: -53.2%
[2]
  AC50: 29.1 µM [falling, single point]
[1]
  AC50: 29.1 µM [falling, single point]

## Cc1ccc(-c2noc(CSc3nnnn3C3CCCCC3)n2)cc1
  cell number change: 10.7%
[2]
  AC50: 2.06 µM [rising, partial curve]
[1]
  AC50: 29.1 µM [rising, single point]

## CSc1ccccc1-n1nnnc1SCC(=O)Nc1ccccc1C
[2]
  AC50: 0.13 µM [rising, full curve]

## Cc1nccn1CC(=O)N/N=C/c1ccccc1O
  cell number change: 12.2%
[1]
  AC50: 0.259 µM [falling, partial curve, poor fit]

## COc1ccc(NC(=S)Nc2ccc(F)cc2)cc1
  cell number change: -15%
[1]
  AC50: 10.3 µM [falling, partial curve]

## COCCCn1c(=O)/c(=C\c2ccccc2OC(F)F)s/c1=C(/C#N)C(N)=O
  cell number change: 18.3%
[1]
  AC50: 0.326 µM [rising, full curve, poor fit]

— PubChem BioAssay AID2685 (National Center for Advancing Translational Sciences (NCATS), 2010)
